Source: publication PMC5947990
These are yes or no findings as the source states them, for the method shown. In cells and extracts the contact can be indirect. A yes stands for co-enrichment or nearness to the bait. Other partners may have been found. Sequences can lack the tags named with a protein.

The chains behind the UniProt entries cited, without tags or fusion partners.
UniProt Q9JLV5: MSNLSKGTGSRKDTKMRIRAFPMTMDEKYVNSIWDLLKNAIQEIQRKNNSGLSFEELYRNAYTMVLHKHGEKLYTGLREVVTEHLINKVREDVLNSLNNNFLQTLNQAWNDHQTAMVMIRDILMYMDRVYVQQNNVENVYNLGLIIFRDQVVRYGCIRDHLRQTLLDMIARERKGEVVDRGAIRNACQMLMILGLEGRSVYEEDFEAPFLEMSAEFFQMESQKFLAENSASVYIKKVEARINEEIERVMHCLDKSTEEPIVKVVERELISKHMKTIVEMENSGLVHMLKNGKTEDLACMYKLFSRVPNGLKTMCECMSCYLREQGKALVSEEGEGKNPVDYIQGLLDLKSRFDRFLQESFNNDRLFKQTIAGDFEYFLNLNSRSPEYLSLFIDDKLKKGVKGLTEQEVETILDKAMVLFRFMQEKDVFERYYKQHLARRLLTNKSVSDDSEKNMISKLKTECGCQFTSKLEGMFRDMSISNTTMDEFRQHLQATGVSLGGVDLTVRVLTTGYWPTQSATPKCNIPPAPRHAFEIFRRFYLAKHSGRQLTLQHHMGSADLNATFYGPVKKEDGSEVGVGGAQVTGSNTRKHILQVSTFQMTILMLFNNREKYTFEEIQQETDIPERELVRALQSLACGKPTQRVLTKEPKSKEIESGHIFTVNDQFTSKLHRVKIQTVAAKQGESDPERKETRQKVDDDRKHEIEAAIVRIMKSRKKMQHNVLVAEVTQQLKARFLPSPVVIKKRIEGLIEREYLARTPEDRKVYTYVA
UniProt Q6PDQ2: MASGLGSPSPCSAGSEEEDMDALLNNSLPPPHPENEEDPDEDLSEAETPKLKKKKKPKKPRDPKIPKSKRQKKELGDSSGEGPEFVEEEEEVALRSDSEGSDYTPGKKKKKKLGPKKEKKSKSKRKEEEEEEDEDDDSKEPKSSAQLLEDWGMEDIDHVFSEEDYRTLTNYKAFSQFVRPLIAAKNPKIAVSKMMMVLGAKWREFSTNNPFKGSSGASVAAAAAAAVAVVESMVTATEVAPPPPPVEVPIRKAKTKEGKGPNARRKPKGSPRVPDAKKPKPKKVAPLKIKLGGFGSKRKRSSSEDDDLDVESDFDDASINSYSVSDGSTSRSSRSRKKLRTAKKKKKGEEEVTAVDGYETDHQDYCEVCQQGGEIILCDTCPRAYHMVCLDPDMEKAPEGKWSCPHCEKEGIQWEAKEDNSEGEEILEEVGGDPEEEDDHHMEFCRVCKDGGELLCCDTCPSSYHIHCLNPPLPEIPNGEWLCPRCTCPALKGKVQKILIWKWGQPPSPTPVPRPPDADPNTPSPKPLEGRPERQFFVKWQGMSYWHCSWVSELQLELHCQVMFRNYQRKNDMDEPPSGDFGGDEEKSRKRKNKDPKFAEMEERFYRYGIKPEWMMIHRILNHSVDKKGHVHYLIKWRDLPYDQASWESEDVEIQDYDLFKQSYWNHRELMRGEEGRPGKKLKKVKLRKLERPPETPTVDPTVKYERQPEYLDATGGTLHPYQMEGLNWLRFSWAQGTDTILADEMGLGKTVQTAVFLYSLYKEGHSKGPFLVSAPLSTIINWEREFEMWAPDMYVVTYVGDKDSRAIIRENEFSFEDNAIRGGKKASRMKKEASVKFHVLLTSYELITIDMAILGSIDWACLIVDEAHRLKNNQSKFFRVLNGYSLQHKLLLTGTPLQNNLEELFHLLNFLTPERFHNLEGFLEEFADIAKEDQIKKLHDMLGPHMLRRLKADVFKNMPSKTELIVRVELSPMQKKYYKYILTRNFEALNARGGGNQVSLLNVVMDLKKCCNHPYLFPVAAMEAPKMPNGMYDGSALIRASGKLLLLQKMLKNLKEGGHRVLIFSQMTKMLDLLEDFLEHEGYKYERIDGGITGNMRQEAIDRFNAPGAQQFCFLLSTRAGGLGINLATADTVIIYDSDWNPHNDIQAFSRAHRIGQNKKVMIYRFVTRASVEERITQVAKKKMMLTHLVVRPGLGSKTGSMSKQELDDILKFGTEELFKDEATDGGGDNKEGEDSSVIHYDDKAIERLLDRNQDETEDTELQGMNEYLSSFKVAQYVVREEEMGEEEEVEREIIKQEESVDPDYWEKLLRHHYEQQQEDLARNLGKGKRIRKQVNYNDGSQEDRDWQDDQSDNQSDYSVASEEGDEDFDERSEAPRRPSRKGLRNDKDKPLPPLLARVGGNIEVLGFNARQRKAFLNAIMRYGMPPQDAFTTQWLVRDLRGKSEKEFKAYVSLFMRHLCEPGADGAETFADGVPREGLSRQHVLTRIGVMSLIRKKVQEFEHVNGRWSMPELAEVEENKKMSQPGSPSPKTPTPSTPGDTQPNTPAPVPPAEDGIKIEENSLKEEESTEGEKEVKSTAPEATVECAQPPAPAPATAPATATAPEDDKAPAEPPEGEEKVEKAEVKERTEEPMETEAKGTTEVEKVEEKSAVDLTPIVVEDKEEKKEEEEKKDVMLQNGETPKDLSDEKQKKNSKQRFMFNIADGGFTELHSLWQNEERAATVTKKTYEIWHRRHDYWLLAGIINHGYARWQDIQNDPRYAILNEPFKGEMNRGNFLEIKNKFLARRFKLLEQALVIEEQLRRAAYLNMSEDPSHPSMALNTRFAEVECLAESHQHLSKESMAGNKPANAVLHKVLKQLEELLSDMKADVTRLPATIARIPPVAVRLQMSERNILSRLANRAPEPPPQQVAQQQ
UniProt P23198: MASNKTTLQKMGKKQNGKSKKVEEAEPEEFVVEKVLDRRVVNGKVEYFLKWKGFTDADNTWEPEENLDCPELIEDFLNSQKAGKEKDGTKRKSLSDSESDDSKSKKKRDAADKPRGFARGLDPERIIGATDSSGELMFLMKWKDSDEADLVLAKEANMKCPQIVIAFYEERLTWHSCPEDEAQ
UniProt Q3TKT4: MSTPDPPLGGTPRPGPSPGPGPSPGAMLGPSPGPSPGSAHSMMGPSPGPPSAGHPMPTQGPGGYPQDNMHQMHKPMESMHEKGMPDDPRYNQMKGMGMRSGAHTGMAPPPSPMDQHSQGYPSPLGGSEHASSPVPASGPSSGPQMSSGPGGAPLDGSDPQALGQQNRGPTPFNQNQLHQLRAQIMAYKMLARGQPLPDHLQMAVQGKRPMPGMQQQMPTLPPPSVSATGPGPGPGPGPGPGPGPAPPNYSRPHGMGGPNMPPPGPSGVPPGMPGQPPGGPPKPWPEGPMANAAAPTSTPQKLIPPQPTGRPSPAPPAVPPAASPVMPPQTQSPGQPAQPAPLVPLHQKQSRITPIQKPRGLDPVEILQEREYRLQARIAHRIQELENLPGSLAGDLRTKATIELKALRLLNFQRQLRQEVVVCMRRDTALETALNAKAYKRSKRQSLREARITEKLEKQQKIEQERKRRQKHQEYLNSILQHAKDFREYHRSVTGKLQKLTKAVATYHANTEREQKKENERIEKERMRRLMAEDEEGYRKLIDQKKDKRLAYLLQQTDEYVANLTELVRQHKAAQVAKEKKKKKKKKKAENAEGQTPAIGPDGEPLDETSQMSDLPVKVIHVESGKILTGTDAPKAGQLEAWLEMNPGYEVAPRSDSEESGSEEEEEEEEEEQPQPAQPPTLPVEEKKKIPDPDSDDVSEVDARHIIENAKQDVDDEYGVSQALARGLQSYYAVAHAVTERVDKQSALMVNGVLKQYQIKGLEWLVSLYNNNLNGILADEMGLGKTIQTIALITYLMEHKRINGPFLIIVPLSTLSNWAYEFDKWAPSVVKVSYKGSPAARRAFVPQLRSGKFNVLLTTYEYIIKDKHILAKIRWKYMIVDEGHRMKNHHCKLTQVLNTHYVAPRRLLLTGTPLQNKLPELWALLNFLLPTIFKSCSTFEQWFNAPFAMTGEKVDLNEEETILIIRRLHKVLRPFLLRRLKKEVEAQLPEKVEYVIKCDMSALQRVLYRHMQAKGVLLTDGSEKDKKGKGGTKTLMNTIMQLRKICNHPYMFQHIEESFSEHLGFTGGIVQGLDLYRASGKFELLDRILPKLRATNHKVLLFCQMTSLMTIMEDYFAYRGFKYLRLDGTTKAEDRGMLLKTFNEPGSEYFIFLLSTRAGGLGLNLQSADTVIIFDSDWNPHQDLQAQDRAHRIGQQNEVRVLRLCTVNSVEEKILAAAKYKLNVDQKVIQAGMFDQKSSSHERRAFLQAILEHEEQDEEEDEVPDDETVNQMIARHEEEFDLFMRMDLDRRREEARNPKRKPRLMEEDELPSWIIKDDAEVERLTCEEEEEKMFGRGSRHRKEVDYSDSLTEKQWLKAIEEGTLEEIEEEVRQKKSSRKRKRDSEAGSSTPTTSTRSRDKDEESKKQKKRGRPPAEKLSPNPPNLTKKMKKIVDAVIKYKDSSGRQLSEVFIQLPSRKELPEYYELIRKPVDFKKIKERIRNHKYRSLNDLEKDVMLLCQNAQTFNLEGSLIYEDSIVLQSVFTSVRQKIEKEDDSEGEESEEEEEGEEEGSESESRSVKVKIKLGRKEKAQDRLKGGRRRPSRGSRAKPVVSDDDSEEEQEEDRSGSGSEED

T1: Olig2-V5 fusion protein (endogenously V5-tagged Olig2) (mouse (endogenous in GNS cells)) (UniProt Q9EQW6)
T1 sequence: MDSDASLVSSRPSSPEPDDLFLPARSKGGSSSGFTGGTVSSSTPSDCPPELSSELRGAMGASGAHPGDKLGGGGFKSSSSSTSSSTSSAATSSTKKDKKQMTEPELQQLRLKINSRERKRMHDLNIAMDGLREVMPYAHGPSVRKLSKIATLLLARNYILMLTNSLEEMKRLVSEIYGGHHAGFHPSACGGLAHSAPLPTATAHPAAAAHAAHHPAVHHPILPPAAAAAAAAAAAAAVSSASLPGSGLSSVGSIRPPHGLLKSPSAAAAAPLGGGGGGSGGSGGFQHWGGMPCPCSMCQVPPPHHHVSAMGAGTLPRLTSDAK


Biological target: T1, Olig2-V5 fusion protein (endogenously V5-tagged Olig2) (mouse (endogenous in GNS cells))
Test: affinity purification with mass spectrometry; ChIP-SICAP, flow-through of the streptavidin enrichment after anti-V5 immunoprecipitation: interactions with soluble (off-chromatin) Olig2

Molecule | binding
Cul3 (from UniProt Q9JLV5 1-768) | binds
Olig3 (protein, UniProt Q6PFG8 1-273) MNSDSSSVSSRASSPDMDEMYLRDHHHRHHHHHQESRLNSVSSTQGDMVQKMPGESLSRAGAKAAGESSKYKIKKQLSEQDLQQLRLKINGRERKRMHDLNLAMDGLREVMPYAHGPSVRKLSKIATLLLARNYILMLTSSLEEMKRLVGEIYGGHHSAFHCGTVGHSAGHPAHAANAVHPVHPILGGALSSGNASSPLSATSLPTIGTIRPPHSLLKAPSTPPALQLGSGFQHWAGLPCPCTICQMPPPPHLSALSTANMARLSAESKDLLK | binds
Olig1 (protein, UniProt Q9JKN5 1-260) MYYAISQARVNAAPATMLRPQRPGDVQLGASLYELVGYRQPPISSSSSSSSSTASLLPKPAREKAEAPLAEPRGPAPESGGARADAKEEQQQQQLRRKINSRERKRMQDLNLAMDALREVILPYSAAHCQGAPGRKLSKIATLLLARNYILLLGSSLQELRRALGDGAGPAAPRLLLAGLPLLAAAPGSVLLAPGAVGPPETLRPTKYLSLALDEPPCGQFSLPAGGAGSPGLCSCAVCKFPHLVPAGLGLAAVQAQFSK | binds

Next, values leading:

binding | Molecule
binds | Chd4 (from UniProt Q6PDQ2 1-1915)
binds | Cbx3 (from UniProt P23198 1-183)
binds | Smarca4 (from UniProt Q3TKT4 1-1613)
